Data as given in PubChem BioAssay AID652243 (Drosophila RNAi Screening Center, 2013)
Assay: 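Knock-downs that decrease or increase androgen receptor reporter signal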 (primary screen). Cells: Drosophila S2R+ cells. Reagent: long dsRNA against Drosophila genes. Timing: 72 h (48 h, then 24 h hormone). Conditions: synthetic androgen R1881 at 10 nM for 24 h. Detection: 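Firefly light from an androgen-responsive reporter and Renilla control light per well, raw and unnormalised, for each of two replicates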. Scale: firefly reporter light: higher = more light from androgen-responsive reporter; Renilla control light: higher = more constitutive control signal (cell number, transfection). Active means: 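Hit when the log firefly-to-Renilla ratio dropped or increased by a fixed fold versus the mean of GFP or LacZ controls across duplicate plates; lowering cut given as 1.5 and as 3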. Meaning of the calls: active = hit: reporter lowered or raised; inactive = no hit.
The screen tested about 24,000 reagents; this is an unselected part of those that have a named target and a result. Over the whole deposit, 246 (1%) are marked active. 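Plates not normalised; calls are printed but the firefly/Renilla ratio behind them is not deposited; fold cut for lowering reported inconsistently.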 Raw values vary from plate to plate and are shown uncorrected. Reagents against one gene are numbered here. A plus sign joins genes that one reagent is predicted to hit. Not given: the amount of reagent.

The first 8 entries, ahead of the listing:
Target gene,reagent,"firefly reporter light, replicate 1","firefly reporter light, replicate 2","Renilla control light, replicate 1","Renilla control light, replicate 2",call
Hydr2,1,1.04e6,1.15e6,2.67e6,2.39e6,inactive
CG34337,1,3.98e5,5.44e5,3.94e6,4.42e6,inactive
galla-2,1,5.57e5,6.97e5,2.53e6,3.53e6,inactive
galla-2,2,7.91e5,6.40e5,1.46e6,1.34e6,inactive
CG4928,1,75895,67264,4.56e5,3.74e5,inactive
CG4928,2,7.17e5,6.77e5,1.66e6,1.49e6,inactive
Hcs,1,1.89e5,2.65e5,5.03e5,6.57e5,inactive
Hcs,2,79675,55855,1.13e6,8.86e5,inactive

The list itself, repeating the preview:
Target gene,reagent,"firefly reporter light, replicate 1","firefly reporter light, replicate 2","Renilla control light, replicate 1","Renilla control light, replicate 2",call
Hydr2,1,1.04e6,1.15e6,2.67e6,2.39e6,inactive
CG34337,1,3.98e5,5.44e5,3.94e6,4.42e6,inactive
galla-2,1,5.57e5,6.97e5,2.53e6,3.53e6,inactive
galla-2,2,7.91e5,6.40e5,1.46e6,1.34e6,inactive
CG4928,1,75895,67264,4.56e5,3.74e5,inactive
CG4928,2,7.17e5,6.77e5,1.66e6,1.49e6,inactive
Hcs,1,1.89e5,2.65e5,5.03e5,6.57e5,inactive
Hcs,2,79675,55855,1.13e6,8.86e5,inactive
Bx42,1,46900,57492,5.15e5,5.30e5,inactive
Bx42,2,2.98e5,2.32e5,6.14e5,6.23e5,inactive
Ids,1,1.07e5,79236,8.49e5,1.10e6,inactive
stnB + stnA,1,4.35e5,5.28e5,2.15e6,3.57e6,inactive
stnB + stnA,2,5.24e5,4.94e5,1.77e5,2.69e5,inactive
stnB + stnA,3,99387,1.30e5,2.46e5,2.62e5,inactive
BaraC,1,1.72e5,2.16e5,3.45e5,3.28e5,inactive
Ttc1,1,2.92e5,2.83e5,3.27e6,3.60e6,inactive
Ttc1,2,6.09e5,9.39e5,1.50e6,1.60e6,inactive
Ttc1,3,3.93e5,3.95e5,7.62e5,7.12e5,inactive
FucTA,1,2.20e5,1.69e5,2.02e6,1.74e6,inactive
dpp,1,2.38e5,2.85e5,7.79e5,6.04e5,inactive
dpp,2,2.83e5,2.45e5,1.09e6,9.16e5,inactive
dpp,3,78500,78844,8.48e5,6.00e5,inactive
dpp,4,4.52e5,4.31e5,5.38e5,6.83e5,inactive
dpp,5,,,,,inactive
CG12065,1,1.01e5,1.07e5,6.55e5,5.90e5,inactive
CG12065,2,3.56e5,3.38e5,3.85e6,3.46e6,inactive
CG34301,1,9.82e5,9.57e5,1.94e6,2.01e6,inactive
deltaCOP,1,73838,87183,6.26e5,6.47e5,inactive
deltaCOP,2,4.40e5,5.81e5,6.81e5,6.47e5,inactive
Osi1,1,16511,262,,,inactive
CG2004,1,3.66e5,5.74e5,3.61e6,3.75e6,inactive
ec,1,1.72e5,2.37e5,4.03e6,3.12e6,inactive
ec,2,5.74e5,4.52e5,5.16e5,5.08e5,inactive
CG32023,1,1.35e5,1.53e5,3.97e5,3.39e5,inactive
Gem3,1,2.03e5,1.95e5,2.11e6,1.88e6,inactive
CG13926,1,71517,98161,1.24e6,1.21e6,inactive
CG11590,1,4.37e5,3.69e5,3.16e6,3.90e6,inactive
CG11590,2,2.81e5,5.75e5,1.20e6,2.21e6,active
Sec8,1,33234,46998,3.86e5,4.75e5,inactive
CG9123,1,6.91e5,7.27e5,4.17e6,4.37e6,inactive
Tsp42Eh,1,4.80e5,4.21e5,2.71e6,2.23e6,inactive
CG13323 + CG13324,1,6.35e5,4.55e5,1.26e6,1.15e6,inactive
CG10345,1,77810,97216,4.19e5,5.17e5,inactive
nompC,1,1.01e5,77302,1.21e6,7.86e5,inactive
CG8833,1,3.87e5,9.58e5,5.91e5,1.34e6,inactive
CG30082,1,8.14e5,1.43e6,1.64e6,2.54e6,inactive
CG12531,1,1.26e5,81407,3.37e5,2.54e5,inactive
CG12531,2,2.37e5,3.16e5,7.97e5,7.97e5,inactive
CG15210,1,5.10e5,4.34e5,4.09e6,4.62e6,inactive
CG15210,2,3.01e5,2.61e5,6.28e5,8.88e5,inactive
ATPsynG,1,3.63e5,3.10e5,2.22e6,1.72e6,inactive
CG13300,1,19998,43278,5.06e5,5.27e5,inactive
CG13300,2,1.23e6,1.02e6,1.12e6,1.10e6,inactive
Hk,1,3.57e5,8.32e5,3.80e5,7.68e5,inactive
Hk,2,6.00e5,3.88e5,6.03e5,4.68e5,inactive
Hk,3,7.40e5,8.72e5,1.53e6,1.67e6,inactive
Nep1,1,95232,96197,5.98e5,6.31e5,inactive
Nep1,2,2.32e5,2.55e5,5.63e5,6.96e5,inactive
CG7029,1,55359,57127,3.62e5,4.92e5,inactive
CG7029,2,9.53e5,9.83e5,8.48e5,9.17e5,inactive
CG13868,1,9.03e5,1.12e6,1.40e6,1.59e6,inactive
Spn47C,1,4.62e5,5.35e5,1.05e6,1.08e6,inactive
Spn47C,2,8.16e5,7.67e5,1.26e6,1.20e6,inactive
M1BP,1,59436,1.21e5,3.37e5,4.29e5,inactive
M1BP,2,4.15e5,5.04e5,1.12e6,1.12e6,inactive
CG4678,1,4.86e5,5.18e5,3.16e6,2.68e6,inactive
CG4678,2,5.61e5,5.27e5,3.27e6,3.20e6,inactive
shn,1,1.14e5,1.21e5,2.31e5,2.97e5,inactive
shn,2,7.92e5,5.88e5,1.98e6,1.97e6,inactive
fu,1,1.84e5,1.03e5,1.20e6,2.93e5,inactive
fu,2,8.40e5,7.25e5,2.35e6,1.16e6,inactive
fu,3,,,,,inactive
CG5946 + CG11597,1,,,,,inactive
CG32588,1,8.32e5,7.05e5,2.13e6,2.02e6,inactive
